Results are given in words; binding and its absence hold for the method and conditions named. Some binding calls cover weakened binding; strength is not graded here.
Target: TDP-43(102-260), tandem RNA recognition motifs RRM1 and RRM2 of TAR DNA-binding Protein 43 kilodaltons (human)
Assay: native gel or EMSA; 4-16% Bis-Tris native gel, Coomassie; 8.125 uM RRM alone or with NTD(1-77) at 0.5:1, 1:1 and 2:1 (NTD:RRM); incubated 10 min at 25 C in 300 mM NaCl, 40 mM HEPES pH 6.5, 4 mM DTT; full shift only at 2:1; also repeated with added RNA; both purified

binding: binds weakly
B1: TDP-43(1-77), structured portion of the N-terminal domain of TAR DNA-binding Protein 43 kilodaltons (domain or fragment)
chain: MSEYIRVTEDENDEPIEIPSEDDGTVLLSTVTAQFPGACGLRYRNPVSQCMRGVRLVEGILHAPDAGWGNLVYVVNY

Reference: article PMC12442443, “Identifying interactions between TDP‐43's N‐terminal and RNA‐binding domains” (Protein Science : A Publication of the Protein Society, 2024)
